# Cleaved PARP in drug-treated melanoma cells

Every entry is a combination with fingolimod at 10000 nM: CCCCCCCCc1ccc(CCC(N)(CO)CO)cc1

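The test systems are human melanoma cell lines, treated with two drugs together for 72 h and then stained and imaged. Values are the share of nuclei positive for cleaved PARP as a percentage of the same share in the DMSO control: 100 is the control level, higher means more apoptosis. Every drug was used at one fixed concentration, the higher of two screened. These are primary screening values without error estimates. The marker varies much from line to line, for technical or biological reasons.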
Only some of the drugs and lines screened are listed, without regard to their results.
An entry leaves out what has no value listed here.
A dash means that no value is listed here.

Partner	WM451Lu	WM3526	501mel	MZ2-MEL	MeWo	A2058	WM1716	A101D	UACC-257	LB2518-MEL
Cc1cn(-c2cc(NC(=O)c3ccc(C)c(Nc4nccc(-c5cccnc5)n4)c3)cc(C(F)(F)F)c2)cn1 at 1000 nM	448	2630	-	5050	467	926	182	1050	607	14100
Nc1cccc2c1CN(C1CCC(=O)NC1=O)C2=O (centres unmarked) at 5000 nM	130	123	-	109	207	2150	90.1	795	92.3	16900
NC(=O)c1ccc(N(C(N)=O)c2c(F)cccc2F)nc1-c1ccc(F)cc1F at 2000 nM	12000	4110	-	6620	589	1980	176	1610	34.2	6090
Cn1cc(/C=C2\C(=O)Nc3cccnc32)c2ccccc21 at 2000 nM	4490	334	26000	185	421	3010	82.9	1190	110	1920
O=C(Nc1ccccc1)c1cc([N+](=O)[O-])ccc1Cl at 10000 nM	9450	1640	22700	17000	1390	5060	1400	2700	88.6	13100
CCN(CC)CCNC(=O)c1c(C)[nH]c(/C=C2\C(=O)Nc3ccc(F)cc32)c1C at 2000 nM	1980	1380	-	11200	88.1	1750	120	1280	126	11000
NCC(=O)Nc1ccc(-n2nc(C(F)(F)F)cc2-c2ccc3c(ccc4ccccc43)c2)cc1 at 5000 nM	3030	5460	-	5330	2140	4740	14200	3750	521	55400
C/C(O)=C(\C#N)C(=O)Nc1cc(Br)ccc1Br at 10000 nM	1290	881	4500	1840	142	5540	11100	4070	90.2	16500
COc1ccc(COc2ccc(Cc3cnc(N)nc3N)cc2OC)cc1 at 5000 nM	4760	1080	-	-	670	1440	231	165	210	-
Nc1nc(F)nc2c1ncn2[C@@H]1O[C@H](CO)[C@@H](O)[C@@H]1O at 1000 nM	2550	3640	-	9290	4520	1840	4370	671	2450	18100
CCCCCCCCCCCCCCCCCCOP(=O)([O-])OC1CC[N+](C)(C)CC1 at 2000 nM	1480	392	-	253	62.4	1750	27.6	743	146	19400
COc1cc(N2CCC(N3CCN(C)CC3)CC2)ccc1Nc1ncc(Cl)c(Nc2ccccc2S(=O)(=O)C(C)C)n1 at 400 nM	7320	1240	-	-	501	3960	212	1910	37.0	-
Cn1cc(C2=C(c3cn(C4CCN(Cc5ccccn5)CC4)c4ccccc34)C(=O)NC2=O)c2ccccc21 at 4000 nM	1030	3160	-	468	424	1840	16600	745	347	24300
CS(=O)(=O)c1ccc(C(=O)Nc2ccc(Cl)c(-c3ccccn3)c2)c(Cl)c1 at 5000 nM	1340	2120	-	12400	1650	428	850	1080	317	29200
CO[C@H]1C[C@@H]2CC[C@@H](C)[C@@](O)(O2)C(=O)C(=O)N2CCCC[C@H]2C(=O)O[C@H]([C@H](C)C[C@@H]2CC[C@@H](OCCO)[C@H](OC)C2)CC(=O)[C@H](C)/C=C(\C)[C@@H](O)[C@@H](OC)C(=O)[C@H](C)C[C@H](C)/C=C/C=C/C=C/1C at 100 nM	3360	889	-	7210	442	1650	2260	953	89.1	21400
CC(C)C[C@H](NC(=O)[C@H](Cc1ccccc1)NC(=O)c1cnccn1)B(O)O at 5 nM	1400	7560	-	24000	1750	3200	27100	717	171	16400
Cc1cc(Nc2cc(N3CCN(C)CC3)nc(Sc3ccc(NC(=O)C4CC4)cc3)n2)n[nH]1 at 30 nM	397	231	-	445	70.0	2120	102	496	43.1	28400
CC1(C)NC(=O)N(c2ccc([N+](=O)[O-])c(C(F)(F)F)c2)C1=O at 5000 nM	4870	2650	-	27000	986	3010	3490	3950	55.1	29300
C[C@]1(O)C[C@@H](c2nc(-c3ccc4ccc(-c5ccccc5)nc4c3)c3c(N)nccn32)C1 at 2000 nM	283	1880	-	7210	286	1080	135	1250	71.1	27400
COc1cc2c(Oc3ccc4[nH]c(C)cc4c3F)ncnc2cc1OCCCN1CCCC1 at 2000 nM	5240	5410	-	8560	1180	2370	13400	4630	103	14300
Cn1c(=O)n(-c2ccc(C(C)(C)C#N)cc2)c2c3cc(-c4cnc5ccccc5c4)ccc3ncc21 at 20 nM	2170	2210	-	3660	102	2040	365	1500	106	36800
CCCCCCCCCCCC1=C(O)C(=O)C=C(O)C1=O at 6000 nM	8410	586	7960	12400	311	1190	43.7	1900	94.6	16600
Nc1ccn([C@@H]2O[C@H](CO)[C@@H](O)C2(F)F)c(=O)n1 at 2 nM	2680	430	-	77.7	338	2520	79.4	1930	47.4	106
Cc1cc([N+](=O)[O-])ccc1NS(=O)(=O)c1cc(Cl)ccc1Cl at 5000 nM	5030	514	8720	220	154	339	252	882	698	453

2 of the entries, repeated:

* Nc1nc(F)nc2c1ncn2[C@@H]1O[C@H](CO)[C@@H](O)[C@@H]1O at 1000 nM : WM451Lu: 2550; WM3526: 3640; MZ2-MEL: 9290; MeWo: 4520; A2058: 1840; WM1716: 4370; A101D: 671; UACC-257: 2450; LB2518-MEL: 18100
* Cc1cc([N+](=O)[O-])ccc1NS(=O)(=O)c1cc(Cl)ccc1Cl at 5000 nM : WM451Lu: 5030; WM3526: 514; 501mel: 8720; MZ2-MEL: 220; MeWo: 154; A2058: 339; WM1716: 252; A101D: 882; UACC-257: 698; LB2518-MEL: 453

Source: doi:10.1371/journal.pone.0140310, primary screening data, rounded.